No constants are given. Whether binding was seen depends on the method and setting. In cells and extracts the contact can be indirect. Here binding means that the protein was enriched with, or labelled near, the bait; the list need not be complete. Where a sequence is shown, tags or fusion partners need not be part of it.
Biological target: T1, SH2D4A-myc-Flag (tetracycline-induced, stable HLF cells) (UniProt Q9H788)
T1 sequence: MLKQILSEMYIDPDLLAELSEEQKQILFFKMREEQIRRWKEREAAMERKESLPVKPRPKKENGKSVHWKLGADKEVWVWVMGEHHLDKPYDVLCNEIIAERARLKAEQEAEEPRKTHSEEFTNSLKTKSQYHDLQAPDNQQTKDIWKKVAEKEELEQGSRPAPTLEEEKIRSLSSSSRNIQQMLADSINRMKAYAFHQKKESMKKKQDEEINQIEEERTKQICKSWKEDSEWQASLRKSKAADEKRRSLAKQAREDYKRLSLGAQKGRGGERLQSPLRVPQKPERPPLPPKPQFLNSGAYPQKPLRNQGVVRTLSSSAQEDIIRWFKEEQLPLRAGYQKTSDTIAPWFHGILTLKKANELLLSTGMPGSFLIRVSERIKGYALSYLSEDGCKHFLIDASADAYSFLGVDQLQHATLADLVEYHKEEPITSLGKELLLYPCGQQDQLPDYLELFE
Test: affinity purification with mass spectrometry; Lysate (NP-40 buffer) of HLF cells with tetracycline-induced Flag-tagged SH2D4A, precipitated with Flag M2 antibody on IP-Matrix overnight at 4 °C; eluate analysed by LC-MS/MS; uninduced cells as control

By UniProt entry, the sequences of proteins in these tests, tags left out.
UniProt P62140: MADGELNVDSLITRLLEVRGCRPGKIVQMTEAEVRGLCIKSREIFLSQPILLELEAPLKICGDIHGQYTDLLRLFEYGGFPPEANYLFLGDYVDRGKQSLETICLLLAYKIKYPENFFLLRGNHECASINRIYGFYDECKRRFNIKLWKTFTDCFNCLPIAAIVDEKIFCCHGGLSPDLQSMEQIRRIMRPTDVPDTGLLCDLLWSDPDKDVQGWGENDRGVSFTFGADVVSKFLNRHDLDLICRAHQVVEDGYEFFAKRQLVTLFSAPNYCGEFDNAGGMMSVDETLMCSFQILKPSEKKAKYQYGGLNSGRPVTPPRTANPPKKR

binding: binds
Substance: protein phosphatase 1 catalytic subunit beta (PPP1CB), endogenous in HLF cells (from UniProt P62140 1-327) (enzyme)

Source: PMC7705682
